Measured values as given in patent publication US20190046655A1 (ARBELE, published 2019).
Results are given in words; binding and its absence hold for the method and conditions named. Some binding calls cover weakened binding; strength is not graded here.

The chains behind the UniProt entries cited, without tags or fusion partners. Residues count along the entry.
UniProt Q12864, residues 23-787: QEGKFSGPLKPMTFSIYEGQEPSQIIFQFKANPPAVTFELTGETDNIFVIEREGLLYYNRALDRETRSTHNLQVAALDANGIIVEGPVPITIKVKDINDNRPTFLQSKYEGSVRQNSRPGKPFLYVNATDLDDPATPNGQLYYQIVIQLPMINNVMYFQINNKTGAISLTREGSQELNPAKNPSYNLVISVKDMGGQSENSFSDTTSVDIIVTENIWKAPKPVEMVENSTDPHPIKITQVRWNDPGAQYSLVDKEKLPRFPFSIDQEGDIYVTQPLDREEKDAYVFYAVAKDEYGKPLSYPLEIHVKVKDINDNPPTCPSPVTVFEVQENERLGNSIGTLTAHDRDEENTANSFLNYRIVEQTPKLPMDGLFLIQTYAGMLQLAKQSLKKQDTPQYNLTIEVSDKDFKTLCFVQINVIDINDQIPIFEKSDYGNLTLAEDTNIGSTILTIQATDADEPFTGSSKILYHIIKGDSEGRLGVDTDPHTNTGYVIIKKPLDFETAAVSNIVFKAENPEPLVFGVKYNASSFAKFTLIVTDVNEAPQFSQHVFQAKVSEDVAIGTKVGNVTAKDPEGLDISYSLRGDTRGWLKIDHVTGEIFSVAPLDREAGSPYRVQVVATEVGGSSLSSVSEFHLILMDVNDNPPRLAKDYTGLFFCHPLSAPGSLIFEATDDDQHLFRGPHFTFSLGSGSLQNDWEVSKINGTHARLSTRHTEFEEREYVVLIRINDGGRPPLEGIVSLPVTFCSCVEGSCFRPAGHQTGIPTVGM

Assays:
[1] = target: T1, cadherin-17 (CDH17), ELISA antigen (UniProt Q12864 23-787, limits assumed); assay: ELISA
T1 construct: also called liver-intestine cadherin

[2] = target: cadherin-17 (CDH17), ELISA antigen (UniProt Q12864); assay: ELISA

Row | binding [1] | binding [2] | Binder
1 | binds |  | Lic5 scFv (scFv, V domains shown, Tested as a single-chain Fv; also called scFv lic5; mouse CDH17 antibody Lic5 scFv) VH: EVQLEESGGGLVKPGGSLKLPCAASGSSFSDFYMYWVRQTPEKRLEWVASISFDGTYTYYTDRVKGRFTISRDNAKNNLYLQMSSLKSEDTAMYYCARDRPAWFPYWGQGTLVTVSA VL: DIVLTQTTLSLNVSLGDQASISCRSSQSIVHSNGNTYLEWYLQRPGQSPKLLIYKVSNRFSGVPDRFSGSGSGTDFTLKISRVEAEDLGVYYCFQGSHVPLTFGAGTKLELKR
2 |  | binds | Lic3 scFv (scFv, V domains shown, Tested as a single-chain Fv; also called scFv lic 3; mouse CDH17 antibody Lic3 scFv) VH: EVQLVESGGGLVKPGGSLKLSCAASGFSFSDYYMYWVRQAPEKRLEWVASISFDGTYTYYTDRVKGRFTISRDNAKNNLYLQMSSLKSEDTAMYYCARDRPAWFPYWGQGTLVTVSA VL: DVLMTQIPLSLTVSLGDQASISCRSSQSIVHSNGNTYLEWYLQRPGQSPKLLIYKVSNRFSGVPDRFSGSGSGTDFTLKISRVEAEDLGVYYCFQGSHVPLTFGAGTKLELK
